One substance from article PMC9133015 (Nature Communications, 2022) can be followed below.

Sequences of proteins named here, by UniProt entry; tags and fusion partners are left off.
UniProt Q13541: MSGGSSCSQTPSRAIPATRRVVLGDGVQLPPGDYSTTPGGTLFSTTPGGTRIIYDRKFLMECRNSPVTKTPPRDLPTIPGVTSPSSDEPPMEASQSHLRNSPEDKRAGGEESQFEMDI

No constants are given. Whether binding was seen depends on the method and setting. In cells and extracts the contact can be indirect. Some results given as binding are weak or reduced against the parent protein; the word gives no strength.

The assay deals with T1, dual-specificity tyrosine phosphorylation-regulated kinase 2 (human (endogenous in cells; the cell line is not named, all cell lines of the paper are human)) (UniProt Q92630).
T1 sequence: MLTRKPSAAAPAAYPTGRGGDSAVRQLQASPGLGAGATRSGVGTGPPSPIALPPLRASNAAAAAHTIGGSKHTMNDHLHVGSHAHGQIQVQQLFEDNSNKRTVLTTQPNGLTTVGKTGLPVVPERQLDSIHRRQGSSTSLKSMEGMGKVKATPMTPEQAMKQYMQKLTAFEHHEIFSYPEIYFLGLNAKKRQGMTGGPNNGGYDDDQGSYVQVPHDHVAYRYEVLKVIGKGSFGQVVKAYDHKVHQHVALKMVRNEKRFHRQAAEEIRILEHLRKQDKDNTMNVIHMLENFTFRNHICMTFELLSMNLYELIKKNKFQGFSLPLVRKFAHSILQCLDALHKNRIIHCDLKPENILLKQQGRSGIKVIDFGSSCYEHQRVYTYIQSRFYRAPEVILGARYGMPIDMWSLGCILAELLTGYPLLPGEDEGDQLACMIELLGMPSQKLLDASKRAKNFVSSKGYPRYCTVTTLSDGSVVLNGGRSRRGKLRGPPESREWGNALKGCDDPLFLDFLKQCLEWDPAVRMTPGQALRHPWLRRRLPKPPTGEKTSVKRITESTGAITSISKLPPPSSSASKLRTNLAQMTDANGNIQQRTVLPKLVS
Kind of assay: co-IP; cell lysate (PBS with Triton X-100, CHAPS, protease inhibitors) incubated with anti-DYRK2 antibody 2 h at 4 °C, then protein A-Sepharose beads overnight at 4 °C; rabbit IgG as control; 1% of the lysate as input; blot for p-4E-BP1 (Thr37/46).

Take “4E-binding protein 1 phosphorylated at Thr37/46 (from UniProt Q13541 1-118)”: the binding entry is given as “binds”.
